Consider one molecule from publication PMC11972380.

Protein sequences, listed by entry. Tags and fused reporters are not part of them. Residues count along the entry.
UniProt Q9Y6N7, residues 26-1651: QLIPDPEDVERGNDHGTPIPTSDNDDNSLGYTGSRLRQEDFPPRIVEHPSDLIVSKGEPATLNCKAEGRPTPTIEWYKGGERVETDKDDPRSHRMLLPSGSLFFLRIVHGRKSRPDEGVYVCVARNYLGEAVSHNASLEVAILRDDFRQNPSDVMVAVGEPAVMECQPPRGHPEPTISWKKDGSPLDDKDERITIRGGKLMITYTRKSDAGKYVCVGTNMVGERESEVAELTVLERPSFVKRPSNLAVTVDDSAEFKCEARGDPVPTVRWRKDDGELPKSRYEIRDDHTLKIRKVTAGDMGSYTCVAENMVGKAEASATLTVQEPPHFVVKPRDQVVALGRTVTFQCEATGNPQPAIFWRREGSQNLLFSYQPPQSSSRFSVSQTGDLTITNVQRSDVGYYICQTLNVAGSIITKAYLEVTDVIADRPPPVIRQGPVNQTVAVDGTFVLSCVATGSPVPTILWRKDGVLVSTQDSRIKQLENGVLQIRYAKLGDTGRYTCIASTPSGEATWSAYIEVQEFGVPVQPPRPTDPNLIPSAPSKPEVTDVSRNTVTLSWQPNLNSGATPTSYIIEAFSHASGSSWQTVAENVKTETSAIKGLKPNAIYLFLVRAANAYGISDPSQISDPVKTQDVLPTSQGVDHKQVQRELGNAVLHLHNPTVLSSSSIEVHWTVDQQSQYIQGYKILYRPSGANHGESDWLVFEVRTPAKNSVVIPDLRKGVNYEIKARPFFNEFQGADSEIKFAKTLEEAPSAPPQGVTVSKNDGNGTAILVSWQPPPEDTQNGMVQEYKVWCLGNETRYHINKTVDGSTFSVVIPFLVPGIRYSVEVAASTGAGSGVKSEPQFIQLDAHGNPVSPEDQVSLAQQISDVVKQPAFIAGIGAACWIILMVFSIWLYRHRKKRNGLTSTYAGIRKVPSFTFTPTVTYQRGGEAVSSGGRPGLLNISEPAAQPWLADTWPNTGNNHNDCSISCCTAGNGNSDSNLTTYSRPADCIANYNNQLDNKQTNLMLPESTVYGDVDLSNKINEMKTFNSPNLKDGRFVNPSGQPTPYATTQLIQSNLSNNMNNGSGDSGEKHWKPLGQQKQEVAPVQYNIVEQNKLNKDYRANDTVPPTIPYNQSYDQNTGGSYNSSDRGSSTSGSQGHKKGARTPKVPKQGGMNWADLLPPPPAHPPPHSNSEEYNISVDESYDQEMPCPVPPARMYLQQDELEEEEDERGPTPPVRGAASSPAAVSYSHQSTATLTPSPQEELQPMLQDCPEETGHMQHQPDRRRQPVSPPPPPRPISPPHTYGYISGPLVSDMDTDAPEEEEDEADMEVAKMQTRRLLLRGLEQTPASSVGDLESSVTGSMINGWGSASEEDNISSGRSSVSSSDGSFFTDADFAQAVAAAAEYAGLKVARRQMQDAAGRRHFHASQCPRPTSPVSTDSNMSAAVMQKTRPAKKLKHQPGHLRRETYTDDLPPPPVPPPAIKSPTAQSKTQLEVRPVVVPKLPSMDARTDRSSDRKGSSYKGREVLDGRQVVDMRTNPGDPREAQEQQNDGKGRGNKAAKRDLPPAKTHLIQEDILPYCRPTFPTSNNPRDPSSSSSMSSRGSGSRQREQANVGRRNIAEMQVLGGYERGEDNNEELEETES

Assay [1] deals with roundabout guidance receptor 1 (ROBO1) (human (endogenous in KYSE450 and TE1)) (UniProt Q9Y6N7). The assay is described as follows: co-IP; endogenous proteins; ESCC cell lysates (KYSE450, TE1) incubated with anti-ROBO1 antibodies, IgG as control, Protein A + G agarose beads, Western blot. Background: A western blot detects proteins with antibodies after separation by electrophoresis.

The target is the same in assay [2]. The assay is described as follows: co-IP; endogenous proteins in ESCC cells (Fig. 4B); the precipitating antibody is not told in the text or legend; IgG as control, Protein A + G agarose beads, Western blot.

Results are given in words; binding and its absence hold for the method and conditions named. Binding seen in cells or lysates may run through a third protein. Some entries that bind do so weakly or less than the wild type.

B1: G3BP2 (Ras GTPase-activating protein-binding protein 2) (protein, UniProt Q9UN86 1-482)
chain: MVMEKPSPLLVGREFVRQYYTLLNKAPEYLHRFYGRNSSYVHGGVDASGKPQEAVYGQNDIHHKVLSLNFSECHTKIRHVDAHATLSDGVVVQVMGLLSNSGQPERKFMQTFVLAPEGSVPNKFYVHNDMFRYEDEVFGDSEPELDEESEDEVEEEQEERQPSPEPVQENANSGYYEAHPVTNGIEEPLEESSHEPEPEPESETKTEELKPQVEEKNLEELEEKSTTPPPAEPVSLPQEPPKAFSWASVTSKNLPPSGTVSSSGIPPHVKAPVSQPRVEAKPEVQSQPPRVREQRPRERPGFPPRGPRPGRGDMEQNDSDNRRIIRYPDSHQLFVGNLPHDIDENELKEFFMSFGNVVELRINTKGVGGKLPNFGFVVFDDSEPVQRILIAKPIMFRGEVRLNVEEKKTRAARERETRGGGDDRRDIRRNDRGPGGPRGIVGGGMMRDRDGRGPPPRGGMAQKLGSGRGTGQMEGRFTGQRR
As to B1, the binding entry in assay [1] and in assay [2] was “binds” throughout.
